{
  "sequences": {"note": "Protein sequences, listed by entry. Tags and fused reporters are not part of them. Lines headed by an entry give the natural chain unless they say otherwise; changes in a name come on top. Residues count along the entry.", "UniProt P03372": "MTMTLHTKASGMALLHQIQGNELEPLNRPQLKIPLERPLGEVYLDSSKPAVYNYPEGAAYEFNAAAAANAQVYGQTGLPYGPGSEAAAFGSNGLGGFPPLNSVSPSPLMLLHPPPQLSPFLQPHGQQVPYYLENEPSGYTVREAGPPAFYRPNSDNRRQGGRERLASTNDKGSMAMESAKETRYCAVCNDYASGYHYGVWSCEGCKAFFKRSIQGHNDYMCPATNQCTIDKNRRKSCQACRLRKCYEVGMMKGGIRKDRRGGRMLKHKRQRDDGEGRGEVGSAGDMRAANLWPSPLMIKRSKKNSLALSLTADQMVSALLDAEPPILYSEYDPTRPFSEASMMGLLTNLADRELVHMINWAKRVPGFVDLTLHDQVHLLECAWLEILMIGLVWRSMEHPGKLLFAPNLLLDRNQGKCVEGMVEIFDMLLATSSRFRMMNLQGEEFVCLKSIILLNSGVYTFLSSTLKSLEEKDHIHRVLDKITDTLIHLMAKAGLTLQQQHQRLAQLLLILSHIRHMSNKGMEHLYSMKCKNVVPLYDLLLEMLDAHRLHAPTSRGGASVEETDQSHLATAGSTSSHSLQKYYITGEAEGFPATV", "UniProt P27986, residues 2-724": "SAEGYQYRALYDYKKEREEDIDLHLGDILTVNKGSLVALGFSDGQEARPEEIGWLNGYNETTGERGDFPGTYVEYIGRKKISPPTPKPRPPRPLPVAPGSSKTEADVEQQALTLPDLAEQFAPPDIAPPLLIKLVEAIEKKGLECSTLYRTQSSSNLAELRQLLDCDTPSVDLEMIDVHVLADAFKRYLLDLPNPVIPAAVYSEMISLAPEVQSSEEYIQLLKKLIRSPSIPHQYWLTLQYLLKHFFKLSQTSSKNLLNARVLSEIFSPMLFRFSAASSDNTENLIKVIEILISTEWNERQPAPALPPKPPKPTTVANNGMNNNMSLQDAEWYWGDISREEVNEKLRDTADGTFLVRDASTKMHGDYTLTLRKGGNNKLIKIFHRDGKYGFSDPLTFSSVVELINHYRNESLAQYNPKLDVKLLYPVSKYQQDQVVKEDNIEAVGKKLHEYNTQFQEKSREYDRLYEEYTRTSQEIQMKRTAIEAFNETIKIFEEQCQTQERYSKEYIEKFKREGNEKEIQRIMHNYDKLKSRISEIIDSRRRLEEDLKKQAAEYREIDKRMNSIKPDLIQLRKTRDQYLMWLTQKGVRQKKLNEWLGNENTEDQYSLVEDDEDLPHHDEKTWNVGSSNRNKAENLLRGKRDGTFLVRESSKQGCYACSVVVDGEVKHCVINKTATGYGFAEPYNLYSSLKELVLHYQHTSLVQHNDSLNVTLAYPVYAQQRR"},
  "source": "patent US20200255474A1",
  "key": {"[1]": {"target": "FLAG-tagged ESR1 mutant (Y537S) (human) (UniProt P03372)", "experiment": "co-IP with anti-ERα antibody from MCF-7 cells transfected with FLAG-tagged ESR1 Y537S, no estrogen"}, "[2]": {"target": "FLAG-tagged ESR1 mutant (Y537S) (human) (UniProt P03372)", "experiment": "co-IP with anti-ERα antibody from MCF-7 cells transfected with FLAG-tagged ESR1 Y537S"}},
  "note": "No constants are given. Whether binding was seen depends on the method and setting. In cells and extracts the contact can be indirect. Some entries that bind do so weakly or less than the wild type.",
  "data": [
    {"substance": "PI3K (phosphatidylinositol 3-kinase) (from UniProt P27986 2-724) (enzyme)", "values": [
      {"measurement": "binding", "setting": "[1]", "value": "binds"},
      {"measurement": "binding", "setting": "[2]", "value": "binds"}
    ]}
  ]
}
